Laboratory results as given in patent US8785649B2, “Ethynylphenylamidine compound or salt thereof, method for producing same, and fungicide for agricultural and horticultural use” (priority 2010, dated 2014).
Some of these results come from one statement about several compounds together.

Tests used:
[1] = test system: powdery mildew (Sphaerotheca cucurbitae); assay: Test of preventive effect on cucumber powdery mildew; format: in vivo; conditions: 500 ppm test solution sprayed on cucumber seedlings; about ten days after inoculation
[2] = test system: wheat powdery mildew (Erysiphe graminis); assay: Test of preventive effect on wheat powdery mildew; conditions: 500 ppm test solution sprayed on wheat seedlings; seven days after inoculation

SMILES | Preventive value [1] | Preventive value [2]
CCCCCCCCCCCCCCCCC#Cc1cc(C)c(N=CN(C)CC)cc1C [Compound 103] | ≥ 50% | 
CCN(C)C=Nc1cc(C)c(C#Cc2ccccc2C(F)(F)F)cc1C [Compound 118] | ≥ 50% | ≥ 50%
CCN(C)C=Nc1ccc(C#C[Si](C)(C)C)cc1Cl [Compound 65] | ≥ 50% | ≥ 50%
CCN(C)C=Nc1cc(C)c(C#CC[Si](C)(C)C)cc1C [Compound 127] | ≥ 50% | ≥ 50%
CCN(C)C=Nc1cc(C)c(C#C[Si](C)(C)C(C)(C)C)cc1C.Cl [Compound 163] | ≥ 50% | ≥ 50%
CCN(C)C=Nc1cc(Cl)c(C#C[Si](CC)(CC)CC)cc1C [Compound 95] | ≥ 50% | ≥ 50%
C#Cc1cc(C)c(N=CN(C)CC)cc1Cl [Compound 90] | ≥ 50% | 
CCN(C)C=Nc1cc(F)c(C#CC[Si](C)(C)C)cc1C [Compound 157] | ≥ 50% | 
Cc1cc(C#C[Si](C)(C)C)ccc1N=CN(C)C [Compound 49, N,N-dimethyl-N′-[2-methyl-4-(2-trimethylsilyl-1-ethynyl)phenyl]formamidine] | ≥ 50% | ≥ 50%
CCCC#Cc1cc(C)c(N=CN(C)CC)cc1C [Compound 97] | ≥ 50% | ≥ 50%
Cc1cc(C#Cc2ccccc2)ccc1N=CN(C)CC(C)C [Compound 135] | ≥ 50% | ≥ 50%
CCN(C)C=Nc1ccc(C#Cc2ccccc2)c(Cl)c1 [Compound 76] | ≥ 50% | ≥ 50%
CCN(C)C=Nc1cc(C)c(C#C[Si](C)(C)C)cc1C [Compound 123, N-ethyl-N-methyl-N′-[2,5-dimethyl-4-(2-trimethylsilyl-1-ethynyl)phenyl]formamidine] | ≥ 50% | ≥ 50%
CCN(C)C=Nc1ccc(C#C[Si](C)(C)C)c(Cl)c1 [Compound 77] | ≥ 50% | ≥ 50%
CCN(C)C=Nc1cc(C)c(C#C[Si](C)(C)C)cc1C.Cl [Compound 162, N-ethyl-N-methyl-N′-[2,5-dimethyl-4-(2-trimethylsilyl-1-ethynyl)phenyl]formamidine hydrochloride] | ≥ 50% | ≥ 50%
C#Cc1cc(C)c(N=CN(C)CC)cc1F [Compound 154] | ≥ 50% | 
CCN(C)C=Nc1cc(F)c(C#Cc2ccccc2)cc1F [Compound 79] | ≥ 50% | ≥ 50%
CCN(C)C=Nc1cc(F)c(C#C[Si](CC)(CC)CC)cc1C [Compound 159] | ≥ 50% | ≥ 50%
CN(C)C=Nc1ccc(C#Cc2ccccc2)cc1 [Compound 5] | ≥ 50% | ≥ 50%
CCN(C)C=Nc1ccc(C#Cc2ccccc2)cc1OC(F)(F)F [Compound 74] | ≥ 50% | 
CCN(C)C=Nc1cc(C)c(C#CC(C)(C)C)cc1C [Compound 98] | ≥ 50% | ≥ 50%
CCN(C)C=Nc1cc(C)c(C#CC(C)(C)C)cc1Cl [Compound 85] | ≥ 50% | ≥ 50%
CCN(C)C=Nc1cc(Cl)c(C#Cc2ccccc2)cc1Cl [Compound 82] | ≥ 50% | ≥ 50%
Cc1cc(N=CN2CCCCC2)c(C)cc1C#C[Si](C)(C)C [Compound 147] | ≥ 50% | ≥ 50%

SMILES | Preventive value [1] | Preventive value [2]
Cc1cc(C#Cc2cccc(C(F)(F)F)c2)ccc1N=CN(C)C [Compound 46] | ≥ 50% | ≥ 50%
CCN(C)C=Nc1cc(Cl)c(C#Cc2ccccc2)cc1C [Compound 92] | ≥ 50% | ≥ 50%
Cc1cc(N=CN(C)C)c(Cl)cc1C#Cc1ccccc1 [Compound 17] | ≥ 50% | ≥ 50%
CCN(C)C=Nc1ccc(C#CC(C)(C)C)cc1F [Compound 60] |  | ≥ 50%
CCN(C=Nc1ccc(C#Cc2ccccc2)cc1C)CC [Compound 140] | ≥ 50% | ≥ 50%
CCN(C)C=Nc1cc(C)c(C#Cc2ccc(C(F)(F)F)cc2)cc1C [Compound 120] | ≥ 50% | ≥ 50%
Cc1cc(C#CC2CCCCC2)ccc1N=CN(C)C [Compound 25] | ≥ 50% | 
CCN(C)C=Nc1cc(C)c(C#CC(C)(C)O[Si](C)(C)C)cc1C [Compound 161] | ≥ 50% | ≥ 50%
CCN(C)C=Nc1cc(C)c(C#C[Si](C(C)C)(C(C)C)C(C)C)cc1C [Compound 125] | ≥ 50% | ≥ 50%
CCN(C)C=Nc1cc(Cl)c(C#CC(C)(C)C)cc1C [Compound 91] | ≥ 50% | ≥ 50%
CCN(C)C=Nc1cc(C)c(C#C[Si](CC)(CC)CC)cc1Cl [Compound 89] | ≥ 50% | ≥ 50%
Cc1cc(C#C[Si](C)(C)C)ccc1N=CN(C)C1CCCCC1 [Compound 139] | ≥ 50% | ≥ 50%
Cc1cc(C#Cc2ccsc2)ccc1N=CN(C)C [Compound 51] | ≥ 50% | ≥ 50%
C#Cc1cc(Cl)c(N=CN(C)CC)cc1C [Compound 84] | ≥ 50% | ≥ 50%
CCCCN(C)C=Nc1ccc(C#Cc2ccccc2)cc1C [Compound 133] | ≥ 50% | ≥ 50%
C#Cc1cc(Cl)c(N=CN(C)CC)cc1Cl [Compound 149] | ≥ 50% | ≥ 50%
CNC=Nc1ccc(C#Cc2ccccc2)cc1C [Compound 1] | ≥ 50% | ≥ 50%
CCN(C)C=Nc1cc(Cl)c(C#CC(C)(C)C)cc1Cl [Compound 81] | ≥ 50% | ≥ 50%
CCCCCCCCCC#Cc1cc(C)c(N=CN(C)CC)cc1C [Compound 101] | ≥ 50% | ≥ 50%
CCN(C)C=Nc1cc(Cl)c(C#C[Si](CC)(CC)CC)cc1Cl.Cl [Compound 178] | ≥ 50% | 
CCN(C)C=Nc1cc(C)c(C#CCCN2C(=O)c3ccccc3C2=O)cc1C [Compound 109] | ≥ 50% | ≥ 50%
CCN(C)C=Nc1cc(F)c(C#CC(C)(C)C)cc1C [Compound 155] | ≥ 50% | 
Cc1cc(N=CN2CCOCC2)c(C)cc1C#C[Si](C)(C)C [Compound 148] | ≥ 50% | ≥ 50%
CCN(C)C=Nc1ccc(C#CC(C)(C)C)cc1C [Compound 66, N-ethyl-N-methyl-N′-[2-methyl-4-(3,3-dimethyl-1-butynyl)phenyl]formamidine] | ≥ 50% | 

SMILES | Preventive value [1] | Preventive value [2]
CCCc1ccc(C#Cc2cc(C)c(N=CN(C)CC)cc2C)cc1 [Compound 115] | ≥ 50% | ≥ 50%
Cc1cc(C#Cc2ccccc2F)ccc1N=CN(C)C [Compound 33] | ≥ 50% | ≥ 50%
CCN(C)C=Nc1cc(C)c(C#Cc2ccccc2)cc1Cl [Compound 87] | ≥ 50% | 
CCN(C)C=Nc1ccc(C#CC(C)(C)C)cc1Cl [Compound 63] | ≥ 50% | ≥ 50%
CCN(C)C=Nc1cc(Cl)c(C#CC[Si](C)(C)C)cc1C [Compound 94] | ≥ 50% | ≥ 50%
Cc1cc(C#Cc2ccccc2Cl)c(Cl)cc1N=CN1CCCCC1 [Compound 167] | ≥ 50% | 
CCCCCCCCC#Cc1cc(C)c(N=CN(C)CC)cc1C [Compound 100] | ≥ 50% | ≥ 50%
CCN(C)/C=N/c1cc(C)c(-c2ccc(C(C)(C)C)cc2)cc1C [Reference Compound B, reference compound] |  | ≥ 50%
Cc1cc(N=CN(C)C(C)C)c(C)cc1C#C[Si](C)(C)C(C)(C)C [Compound 171] | ≥ 50% | 
CCN(C)C=Nc1ccc(C#C[Si](CC)(CC)CC)cc1C [Compound 69] |  | ≥ 50%
CCN(C)C=Nc1cc(C)c(C#CC(C)(C)O)cc1C [Compound 160] | ≥ 50% | ≥ 50%
Cc1cc(N=CN2CCCCC2)c(C)cc1C#CC(C)(C)O [Compound 145] | ≥ 50% | ≥ 50%
CCN(C)C=Nc1cc(Cl)c(C#Cc2ccccc2Cl)cc1C [Compound 168] | ≥ 50% | ≥ 50%
Cc1cc(C#Cc2ccccc2Cl)c(Cl)cc1N=CN(C)C [Compound 169] | ≥ 50% | 
CCN(C)C=Nc1cc(C)c(C#Cc2ccc(Cl)cc2)cc1C [Compound 113] | ≥ 50% | ≥ 50%
CCN(C)C=Nc1cc(Cl)c(C#CC[Si](C)(C)C)cc1Cl [Compound 151] | ≥ 50% | 
CCN(C)C=Nc1cc(F)c(C#C[Si](C)(C)C)cc1C.Cl [Compound 176] | ≥ 50% | 
CNC=Nc1cc(C)c(C#C[Si](C)(C)C)cc1C [Compound 3] | ≥ 50% | 
CCN(C)C=Nc1ccc(C#C[Si](C)(C)C)cc1F [Compound 62] |  | ≥ 50%
CCN(C)C=Nc1cc(Cl)c(C#CC(C)(C)C)cc1C.Cl [Compound 172] | ≥ 50% | 
Cc1cc(N=CN2CCCCC2)c(C)cc1C#C[Si](C)(C)C.Cl [Compound 179] | ≥ 50% | 
C#Cc1cc(C)c(N=CN(C)CC)cc1C [Compound 96] | ≥ 50% | 
CCN(C)/C=N/c1ccc(-c2ccc(C(C)(C)C)cc2)cc1C [Reference Compound A, reference compound] |  | ≥ 50%
CCN(C)C=Nc1ccc(C#C[Si](C)(C)C)cc1C [Compound 68] | ≥ 50% | 
